Results deposited as PubChem BioAssay AID1259425 (University of Nebraska Medical Center, 2018)

Screen: 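Seek colon cancer weak points whose silencing resembles KSR1 loss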 (primary screen)
System: HCT116 human colon cancer cells
Knock-down reagent: siRNA pool against human genes, 50 nM siRNA
Measurement: 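After 50 nM siRNA pool, branched-DNA assay measures six marker transcripts per well, minus blank, normalised to the geometric mean of two housekeeping transcripts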
Reading the numbers: BNIP3L mRNA: higher = more BNIP3L transcript after knockdown; NDRG1 mRNA: higher = more NDRG1 transcript after knockdown; BNIP3 mRNA: higher = more BNIP3 transcript after knockdown; ALDOC mRNA: higher = more ALDOC transcript after knockdown; ACSL5 mRNA: higher = more ACSL5 transcript after knockdown
The deposit covers about 14,000 reagents; below is a part drawn at random. Not stated in the record: the time to read-out.

Gene | BNIP3L mRNA, set 1 | NDRG1 mRNA, set 1 | BNIP3 mRNA, set 1 | ALDOC mRNA, set 1 | ACSL5 mRNA, set 1
GTF2H3 | 0.0697 | 0.176 | 0.253 | 0.033 | 0.155
CRYL1 | 0.115 | 0.521 | 0.283 | 0.0369 | 0.159
COX10 | 0.0681 | 0.0291 | 0.155 | -0.00346 | 0.251
KLHL22 | 0.117 | 0.142 | 0.259 | 0.0323 | 0.095
TTC22 | 0.211 | 0.667 | 0.291 | 0.0224 | 0.16
DCTN5 | 0.134 | 0.263 | 0.24 | 0.0417 | 0.238
ITPKA | 0.183 | 0.557 | 0.245 | 0.00623 | 0.336
HEMK2 | 0.083 | 0.0492 | 0.198 | 0.0164 | 0.139
KRT35 | 0.129 | 0.1 | 0.321 | 0.02 | 0.123
H2AC6 | 0.144 | 0.113 | 0.32 | 0.0198 | 0.0966
RNF113A | 0.0886 | 0.158 | 0.211 | 0.0342 | 0.0824
WIPF1 | 0.0935 | 0.329 | 0.382 | 0.0138 | 0.328
MTUS2 | 0.103 | 0.138 | 0.298 | 0.0117 | 0.116
SELENOP | 0.187 | 0.111 | 0.327 | 0.0432 | 0.141
NEUROG1 | 0.103 | 0.255 | 0.391 | 0.0473 | 0.203
IRF4 | 0.13 | 0.454 | 0.23 | 0.00494 | 0.221
ADGRL2 | 0.183 | 0.0851 | 0.424 | 0.0561 | 0.141
MMUT | 0.149 | 0.302 | 0.267 | 0.0256 | 0.348
VCF1 | 0.134 | 0.355 | 0.537 | 0.0543 | 0.125
CUX1 | 0.104 | 0.065 | 0.322 | 0.0143 | 0.0452

Individual results from the entries so far:
For “ACSL5 mRNA, set 1”, GTF2H3 shows 0.155
For “BNIP3L mRNA, set 1”, CUX1 has 0.104
